Test results taken from article PMC10995208.
These are yes or no findings as the source states them, for the method shown. In cells and extracts the contact can be indirect. Some results given as binding are weak or reduced against the parent protein; the word gives no strength. Sequences can lack the tags named with a protein.

T1: CD45 (protein tyrosine phosphatase receptor type C), longest isoform CD45RABC, as HA-CD45 and MYC-CD45 in HEK293T cells (human), P08575
T1 chain: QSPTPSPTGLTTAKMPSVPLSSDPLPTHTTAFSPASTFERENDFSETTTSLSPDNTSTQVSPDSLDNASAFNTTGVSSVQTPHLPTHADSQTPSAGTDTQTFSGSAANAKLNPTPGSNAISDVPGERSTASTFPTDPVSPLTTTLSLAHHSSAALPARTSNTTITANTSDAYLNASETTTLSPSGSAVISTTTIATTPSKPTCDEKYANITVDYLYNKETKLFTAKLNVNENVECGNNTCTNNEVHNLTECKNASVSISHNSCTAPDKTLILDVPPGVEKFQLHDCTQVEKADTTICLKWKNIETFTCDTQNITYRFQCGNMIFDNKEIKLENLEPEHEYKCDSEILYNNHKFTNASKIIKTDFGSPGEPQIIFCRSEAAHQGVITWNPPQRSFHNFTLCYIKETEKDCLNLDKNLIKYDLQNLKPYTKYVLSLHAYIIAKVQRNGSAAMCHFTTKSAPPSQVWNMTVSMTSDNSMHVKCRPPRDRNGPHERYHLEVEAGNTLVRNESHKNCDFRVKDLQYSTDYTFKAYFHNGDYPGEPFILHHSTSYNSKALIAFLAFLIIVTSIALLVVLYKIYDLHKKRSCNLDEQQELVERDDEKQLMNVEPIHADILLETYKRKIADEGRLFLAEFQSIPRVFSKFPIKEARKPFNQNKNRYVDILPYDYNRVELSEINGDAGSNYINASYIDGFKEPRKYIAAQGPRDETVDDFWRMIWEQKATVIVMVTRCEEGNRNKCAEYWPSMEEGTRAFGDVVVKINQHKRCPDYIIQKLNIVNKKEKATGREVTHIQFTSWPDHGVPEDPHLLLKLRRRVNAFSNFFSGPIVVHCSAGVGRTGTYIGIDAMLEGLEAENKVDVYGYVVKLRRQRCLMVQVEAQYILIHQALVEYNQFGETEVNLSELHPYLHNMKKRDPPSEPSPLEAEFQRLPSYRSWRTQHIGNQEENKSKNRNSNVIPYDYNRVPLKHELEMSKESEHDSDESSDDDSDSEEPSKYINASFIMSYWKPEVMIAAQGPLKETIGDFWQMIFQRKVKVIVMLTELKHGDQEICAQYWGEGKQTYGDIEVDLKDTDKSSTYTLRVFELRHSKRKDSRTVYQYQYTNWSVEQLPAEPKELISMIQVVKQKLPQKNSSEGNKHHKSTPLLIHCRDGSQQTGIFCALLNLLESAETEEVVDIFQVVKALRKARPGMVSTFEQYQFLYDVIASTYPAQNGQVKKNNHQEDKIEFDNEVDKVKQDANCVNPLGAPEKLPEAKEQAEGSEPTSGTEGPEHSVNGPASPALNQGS

T2: CD45 (CD45RABC) as CD45-GFP fusion in Jurkat-sgCD45 cells and as HA-CD45 in Caco2 cells (human), P08575
T2 chain: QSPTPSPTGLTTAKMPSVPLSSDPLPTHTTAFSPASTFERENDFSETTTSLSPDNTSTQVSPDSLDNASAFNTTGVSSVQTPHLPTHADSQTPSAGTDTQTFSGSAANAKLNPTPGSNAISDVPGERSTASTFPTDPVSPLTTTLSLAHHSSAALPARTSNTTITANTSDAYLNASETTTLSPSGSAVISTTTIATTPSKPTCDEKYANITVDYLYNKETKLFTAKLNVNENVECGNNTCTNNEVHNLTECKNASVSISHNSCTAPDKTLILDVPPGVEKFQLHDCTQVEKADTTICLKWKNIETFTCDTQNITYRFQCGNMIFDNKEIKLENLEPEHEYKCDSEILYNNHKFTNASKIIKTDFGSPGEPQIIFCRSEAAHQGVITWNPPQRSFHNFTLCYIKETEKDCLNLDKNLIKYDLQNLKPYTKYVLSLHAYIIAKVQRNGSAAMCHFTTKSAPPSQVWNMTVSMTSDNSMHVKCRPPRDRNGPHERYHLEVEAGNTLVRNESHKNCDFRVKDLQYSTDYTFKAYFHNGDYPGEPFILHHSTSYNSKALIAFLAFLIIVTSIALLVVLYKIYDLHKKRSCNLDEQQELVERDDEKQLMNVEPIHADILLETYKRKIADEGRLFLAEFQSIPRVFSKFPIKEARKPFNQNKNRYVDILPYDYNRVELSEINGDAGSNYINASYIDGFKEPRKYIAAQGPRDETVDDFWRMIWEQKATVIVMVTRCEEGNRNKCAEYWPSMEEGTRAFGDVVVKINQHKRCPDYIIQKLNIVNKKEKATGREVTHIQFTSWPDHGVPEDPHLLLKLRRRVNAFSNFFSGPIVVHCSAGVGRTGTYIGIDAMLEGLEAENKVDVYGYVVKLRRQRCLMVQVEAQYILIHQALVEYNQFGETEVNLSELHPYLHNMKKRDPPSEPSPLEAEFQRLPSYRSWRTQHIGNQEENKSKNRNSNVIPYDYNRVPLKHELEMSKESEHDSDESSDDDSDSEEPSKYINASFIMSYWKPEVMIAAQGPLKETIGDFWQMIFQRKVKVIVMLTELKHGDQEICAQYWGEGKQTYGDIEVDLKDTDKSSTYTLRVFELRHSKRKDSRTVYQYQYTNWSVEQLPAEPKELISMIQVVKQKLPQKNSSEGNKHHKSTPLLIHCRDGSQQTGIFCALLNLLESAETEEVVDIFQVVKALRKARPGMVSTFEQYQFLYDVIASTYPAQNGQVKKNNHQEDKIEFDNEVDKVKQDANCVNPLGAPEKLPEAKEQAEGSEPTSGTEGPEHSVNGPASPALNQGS


Legend:
Details in all cases: remark: other sources report otherwise
[1] = target: T1, CD45 (protein tyrosine phosphatase …); experiment: proximity ligation; HEK293T cells with HA-tagged and HEK293T cells with MYC-tagged CD45 cocultured 1:1 in ultra-low attachment plate for 3 h, fixed and permeabilised, HA-tag mouse and MYC-tag rabbit antibodies, Duolink In Situ Detection Reagents Red
[2] = target: T1, CD45 (protein tyrosine phosphatase …); experiment: co-IP; HEK293T cells with HA-tagged and HEK293T cells with MYC-tagged CD45 cocultured 1:1 in ultra-low attachment plate for 3 h, NP40 lysis, HA-tag or MYC-tag rabbit antibody overnight at 4 °C, Protein A/G magnetic beads, immunoblot
[3] = target: T2, CD45 (CD45RABC) as CD45-GFP fusion in …; experiment: co-IP; Jurkat-sgCD45-CD45^GFP and Caco2-HA-CD45 cells cocultured 1:1 for 3 h, then co-immunoprecipitation as for the HEK293T cells
[4] = target: T2, CD45 (CD45RABC) as CD45-GFP fusion in …; experiment: proximity ligation; Jurkat-sgCD45-CD45^GFP and Caco2-HA-CD45 cells cocultured 1:1 for 3 h, fixed and permeabilised, Duolink; control Caco2-HA-Ctrl cells gave significantly weaker fluorescence

binding [1]	binding [2]	binding [3]	binding [4]	Binder
binds	binds			CD45 (protein tyrosine phosphatase receptor type C), longest isoform CD45RABC, as HA-CD45 and MYC-CD45 in HEK293T cells, P08575-3 26-1306 (protein) QSPTPSPTGLTTAKMPSVPLSSDPLPTHTTAFSPASTFERENDFSETTTSLSPDNTSTQVSPDSLDNASAFNTTGVSSVQTPHLPTHADSQTPSAGTDTQTFSGSAANAKLNPTPGSNAISDVPGERSTASTFPTDPVSPLTTTLSLAHHSSAALPARTSNTTITANTSDAYLNASETTTLSPSGSAVISTTTIATTPSKPTCDEKYANITVDYLYNKETKLFTAKLNVNENVECGNNTCTNNEVHNLTECKNASVSISHNSCTAPDKTLILDVPPGVEKFQLHDCTQVEKADTTICLKWKNIETFTCDTQNITYRFQCGNMIFDNKEIKLENLEPEHEYKCDSEILYNNHKFTNASKIIKTDFGSPGEPQIIFCRSEAAHQGVITWNPPQRSFHNFTLCYIKETEKDCLNLDKNLIKYDLQNLKPYTKYVLSLHAYIIAKVQRNGSAAMCHFTTKSAPPSQVWNMTVSMTSDNSMHVKCRPPRDRNGPHERYHLEVEAGNTLVRNESHKNCDFRVKDLQYSTDYTFKAYFHNGDYPGEPFILHHSTSYNSKALIAFLAFLIIVTSIALLVVLYKIYDLHKKRSCNLDEQQELVERDDEKQLMNVEPIHADILLETYKRKIADEGRLFLAEFQSIPRVFSKFPIKEARKPFNQNKNRYVDILPYDYNRVELSEINGDAGSNYINASYIDGFKEPRKYIAAQGPRDETVDDFWRMIWEQKATVIVMVTRCEEGNRNKCAEYWPSMEEGTRAFGDVVVKINQHKRCPDYIIQKLNIVNKKEKATGREVTHIQFTSWPDHGVPEDPHLLLKLRRRVNAFSNFFSGPIVVHCSAGVGRTGTYIGIDAMLEGLEAENKVDVYGYVVKLRRQRCLMVQVEAQYILIHQALVEYNQFGETEVNLSELHPYLHNMKKRDPPSEPSPLEAEFQRLPSYRSWRTQHIGNQEENKSKNRNSNVIPYDYNRVPLKHELEMSKESEHDSDESSDDDSDSEEPSKYINASFIMSYWKPEVMIAAQGPLKETIGDFWQMIFQRKVKVIVMLTELKHGDQEICAQYWGEGKQTYGDIEVDLKDTDKSSTYTLRVFELRHSKRKDSRTVYQYQYTNWSVEQLPAEPKELISMIQVVKQKLPQKNSSEGNKHHKSTPLLIHCRDGSQQTGIFCALLNLLESAETEEVVDIFQVVKALRKARPGMVSTFEQYQFLYDVIASTYPAQNGQVKKNNHQEDKIEFDNEVDKVKQDANCVNPLGAPEKLPEAKEQAEGSEPTSGTEGPEHSVNGPASPALNQGS
		binds	binds	CD45 (CD45RABC) as CD45-GFP fusion in Jurkat-sgCD45 cells and as HA-CD45 in Caco2 cells, P08575-3 26-1306 (protein) QSPTPSPTGLTTAKMPSVPLSSDPLPTHTTAFSPASTFERENDFSETTTSLSPDNTSTQVSPDSLDNASAFNTTGVSSVQTPHLPTHADSQTPSAGTDTQTFSGSAANAKLNPTPGSNAISDVPGERSTASTFPTDPVSPLTTTLSLAHHSSAALPARTSNTTITANTSDAYLNASETTTLSPSGSAVISTTTIATTPSKPTCDEKYANITVDYLYNKETKLFTAKLNVNENVECGNNTCTNNEVHNLTECKNASVSISHNSCTAPDKTLILDVPPGVEKFQLHDCTQVEKADTTICLKWKNIETFTCDTQNITYRFQCGNMIFDNKEIKLENLEPEHEYKCDSEILYNNHKFTNASKIIKTDFGSPGEPQIIFCRSEAAHQGVITWNPPQRSFHNFTLCYIKETEKDCLNLDKNLIKYDLQNLKPYTKYVLSLHAYIIAKVQRNGSAAMCHFTTKSAPPSQVWNMTVSMTSDNSMHVKCRPPRDRNGPHERYHLEVEAGNTLVRNESHKNCDFRVKDLQYSTDYTFKAYFHNGDYPGEPFILHHSTSYNSKALIAFLAFLIIVTSIALLVVLYKIYDLHKKRSCNLDEQQELVERDDEKQLMNVEPIHADILLETYKRKIADEGRLFLAEFQSIPRVFSKFPIKEARKPFNQNKNRYVDILPYDYNRVELSEINGDAGSNYINASYIDGFKEPRKYIAAQGPRDETVDDFWRMIWEQKATVIVMVTRCEEGNRNKCAEYWPSMEEGTRAFGDVVVKINQHKRCPDYIIQKLNIVNKKEKATGREVTHIQFTSWPDHGVPEDPHLLLKLRRRVNAFSNFFSGPIVVHCSAGVGRTGTYIGIDAMLEGLEAENKVDVYGYVVKLRRQRCLMVQVEAQYILIHQALVEYNQFGETEVNLSELHPYLHNMKKRDPPSEPSPLEAEFQRLPSYRSWRTQHIGNQEENKSKNRNSNVIPYDYNRVPLKHELEMSKESEHDSDESSDDDSDSEEPSKYINASFIMSYWKPEVMIAAQGPLKETIGDFWQMIFQRKVKVIVMLTELKHGDQEICAQYWGEGKQTYGDIEVDLKDTDKSSTYTLRVFELRHSKRKDSRTVYQYQYTNWSVEQLPAEPKELISMIQVVKQKLPQKNSSEGNKHHKSTPLLIHCRDGSQQTGIFCALLNLLESAETEEVVDIFQVVKALRKARPGMVSTFEQYQFLYDVIASTYPAQNGQVKKNNHQEDKIEFDNEVDKVKQDANCVNPLGAPEKLPEAKEQAEGSEPTSGTEGPEHSVNGPASPALNQGS
